Test results: publication PMC7819943, “Rice protein-binding microarrays: a tool to detect cis-acting elements near promoter regions in rice”
The other results are listed elsewhere or left out.

The chains behind the UniProt entries cited, without tags or fusion partners.
UniProt Q0JBA9, entry or part of it: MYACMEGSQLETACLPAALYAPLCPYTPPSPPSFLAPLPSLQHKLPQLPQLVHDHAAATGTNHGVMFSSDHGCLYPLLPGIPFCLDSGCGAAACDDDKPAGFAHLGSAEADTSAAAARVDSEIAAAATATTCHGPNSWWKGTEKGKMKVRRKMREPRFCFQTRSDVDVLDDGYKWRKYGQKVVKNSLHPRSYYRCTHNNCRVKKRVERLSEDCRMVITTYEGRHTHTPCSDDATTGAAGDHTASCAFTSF

These sequences were tested against OsWRKY34 (Oryza sativa, UniProt Q0JBA9 1-250) (assay: protein-binding microarray (RPBM); PBS, 2% BSA, 51.3 ng/ul salmon testes DNA, 50 uM zinc acetate, 200 nM TF, 25 C, 1 h; high values mean tight binding). Conditions: protein: recombinant; tags: N-terminal polyhistidine and DsRed monomer fusion (pET32a); label: CyDye5-dUTP incorporated in the synthesized complementary strand; 3' TTTTT single-stranded linker to array surface; dsDNA, one strand shown.
Summary of the method: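 Binding signal is reported as fluorescence intensity per feature (arbitrary units) from an Axon 4000B scanner. Incubation used 200 nM of each Ni–NTA-purified, N-terminally polyhistidine- and DsRed-fused transcription factor from E. coli BL21-CodonPlus on a double-stranded custom Agilent array for 1 h at 25 °C, with 50 µM zinc acetate in the buffer, followed by washing.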

Going from “TTCCTCCTAACCGTGCAATTAGTTTTTTCATTTATCTATACGGAGTCACCTAGTGCAG” to “TCCCTCCGCCGACGGCTCCCTCCTCTCCCACGTCCGCGCACGGAGTCACCTAGTGCAG”, the binding signal falls from 8840 fluorescence intensity (a.u.) to 8350 fluorescence intensity (a.u.).

First: TACTGTGCACCTTATCACTCAGCCTAAGCTGTCATATAGACGGAGTCACCTAGTGCAG
Second: GCCTCACCTTTCACTTCATCCATCTCTACACATCAGCAATCGGAGTCACCTAGTGCAG
The binding signal of the first is lower: 9720 fluorescence intensity (a.u.) for the first, 12100 fluorescence intensity (a.u.) for the second.

Compared with “CCAACACAAGCAGAGATGAGGACCGCTTTGACCTCCGTAACGGAGTCACCTAGTGCAG”, “CCACTCACCACCACTATCAACACAACTCTTGCATCACCATCGGAGTCACCTAGTGCAG” is higher in binding signal: 8430 fluorescence intensity (a.u.) for the first, 9940 fluorescence intensity (a.u.) for the second.

Going from “GGAGGCTTCACTGGTGGCGGGGCCGGAGTCGAGGGGTTCTCGGAGTCACCTAGTGCAG” to “CAAAGTCCCATTCTGAAACCTGCCTATATATACAGCGCACCGGAGTCACCTAGTGCAG”, the binding signal falls from 9360 fluorescence intensity (a.u.) to 8520 fluorescence intensity (a.u.).

Compared with “AAGTTTGACCATTTCCACTAGTCAAAAGCTTGTCAGTAAACGGAGTCACCTAGTGCAG”, “CTCATTTTTCATGCCCACTTTGCCACTCGACGCCTCAATTCGGAGTCACCTAGTGCAG” is higher in binding signal: 8240 fluorescence intensity (a.u.) for the first, 9180 fluorescence intensity (a.u.) for the second.

Compared with “GTGTAGTTCTTTTTTATTAGAATCCTATTTTTTTCTATTCCGGAGTCACCTAGTGCAG”, “TTAGGTCGGGTTTTTCCCGTTTCTCGTTTCTATGGCGATGCGGAGTCACCTAGTGCAG” is lower in binding signal: 10800 fluorescence intensity (a.u.) for the first, 8750 fluorescence intensity (a.u.) for the second.

First: CCTTAAAACTGTCAGATTTTTTGTTTTTTTTGTTACAGCTCGGAGTCACCTAGTGCAG
Second: AACACCTCGCCGACAACCTTTGCTCCGGCGACCGGAGGTCCGGAGTCACCTAGTGCAG
The binding signal of the first is higher: 9700 fluorescence intensity (a.u.) for the first, 9170 fluorescence intensity (a.u.) for the second.

Going from “GCCGCCGCGCGCGTCTATCCCCTCGCCGCCGCCGCCGTCTCGGAGTCACCTAGTGCAG” to “CACCAGCTTTTCCTTCTTCTCTCTCTTCTCCGGCGTCCATCGGAGTCACCTAGTGCAG”, the binding signal rises from 8080 fluorescence intensity (a.u.) to 8560 fluorescence intensity (a.u.).

Going from “TTCAAATGCTTCCTGTTTGTCTACTTTTCTACTTTATTTACGGAGTCACCTAGTGCAG” to “CTCCCTTGTCTTCCTCCTCTTCGAACCGCCTCTCATCGCCCGGAGTCACCTAGTGCAG”, the binding signal falls from 8740 fluorescence intensity (a.u.) to 8380 fluorescence intensity (a.u.).

Going from “GGTCGTTTGGTTACCTGCACAGCTGTCGGGCCCGACTCCACGGAGTCACCTAGTGCAG” to “GGGGTGGCGGTGGCGGTGGTGGTGGTGGTGGTGGTGGAGTCGGAGTCACCTAGTGCAG”, the binding signal rises from 9620 fluorescence intensity (a.u.) to 41600 fluorescence intensity (a.u.).

Going from “TATCCACCGCTCGCGACCTCCGCAATTCCACCGTATTCTCCGGAGTCACCTAGTGCAG” to “TTTGTACCAGGTGGCAGTTAAAGTTGAAACCCTGTCTGGACGGAGTCACCTAGTGCAG”, the binding signal falls from 10300 fluorescence intensity (a.u.) to 8700 fluorescence intensity (a.u.).

First: GGTTCATCTGCCGAATTGTTTCGGTGGGTTTGGTGGGAAACGGAGTCACCTAGTGCAG
Second: ATGCATCCGTGGCATTGCATTGCATACTTATCCTACAAATCGGAGTCACCTAGTGCAG
The binding signal of the first is higher: 12900 fluorescence intensity (a.u.) for the first, 8260 fluorescence intensity (a.u.) for the second.

Going from “ACTTACCTAATTCAAGTCACTGTCTTGCTCATCGAGATTACGGAGTCACCTAGTGCAG” to “GCTGCTGCTGCCTCGTTTGACCTACCGTTTCTTTAATCTGCGGAGTCACCTAGTGCAG”, the binding signal rises from 8260 fluorescence intensity (a.u.) to 9590 fluorescence intensity (a.u.).

Going from “CCGGCAGCTTCCACTACCTGCAGACCCACCACTTCGCCTACGGAGTCACCTAGTGCAG” to “TCTCTTTGGTTGAGGTCTGGGCCTTTGTGCTGCTCTGTAACGGAGTCACCTAGTGCAG”, the binding signal falls from 13500 fluorescence intensity (a.u.) to 11000 fluorescence intensity (a.u.).

First: CTAGGTGTGCTTTTGTTTTGTTTTTTTGCGCGCCACTTTTCGGAGTCACCTAGTGCAG
Second: CATGAGACGCGTGTTGCCATTGCTATGTCCGGTTCCAGCCCGGAGTCACCTAGTGCAG
The binding signal of the first is higher: 16300 fluorescence intensity (a.u.) for the first, 8870 fluorescence intensity (a.u.) for the second.

Compared with “CCATTGGAACGTTCTTGCCACGCGTTTTTTTATTTTTTTTCGGAGTCACCTAGTGCAG”, “TCCATCCATGCATTCTCCAACTGGACAGTGTAATATTTTCCGGAGTCACCTAGTGCAG” is lower in binding signal: 15300 fluorescence intensity (a.u.) for the first, 10100 fluorescence intensity (a.u.) for the second.

Compared with “ACGAATTTCTCCCTTACCACACGACAATTTCCCCGTCTCTCGGAGTCACCTAGTGCAG”, “AGTTACCGTTCTAGTCAGGGGCGGATCCAGCGTGGGGCGGCGGAGTCACCTAGTGCAG” is higher in binding signal: 11100 fluorescence intensity (a.u.) for the first, 12600 fluorescence intensity (a.u.) for the second.

Going from “TATTTCCGACACAGGGCGGGGATTTTTTTTTTGGAAACAACGGAGTCACCTAGTGCAG” to “CCAATTTTGACCGATTCCCTGTGTATGTTCCCTCCCATATCGGAGTCACCTAGTGCAG”, the binding signal falls from 14800 fluorescence intensity (a.u.) to 9200 fluorescence intensity (a.u.).

Compared with “TTCTGTTCATTAGTAGTACTCTGCTTGGCGGCTTCCTTTTCGGAGTCACCTAGTGCAG”, “CTTCCTCGTTTTTGCAAAATCCCTCTCACCCAGCAATCCGCGGAGTCACCTAGTGCAG” is lower in binding signal: 8850 fluorescence intensity (a.u.) for the first, 8360 fluorescence intensity (a.u.) for the second.

Compared with “ATTTTCTTTACCAGCTGTACAGTTTTATATTCATTTTTTTCGGAGTCACCTAGTGCAG”, “GGTCGGCGGCGGCGGGTTGGTGGCGGACGCGGCGGATCTGCGGAGTCACCTAGTGCAG” is lower in binding signal: 12800 fluorescence intensity (a.u.) for the first, 8020 fluorescence intensity (a.u.) for the second.

Compared with “GGTCGCTTTACCTCCCCTGCCTGAACACTCTATGCTGCAGCGGAGTCACCTAGTGCAG”, “GATAGAGTTAGGGCATTTGAGATTGTTGGAAGTGGTGTGACGGAGTCACCTAGTGCAG” is lower in binding signal: 8370 fluorescence intensity (a.u.) for the first, 8030 fluorescence intensity (a.u.) for the second.
